No constants are given. Whether binding was seen depends on the method and setting. A result given as binding can be weak or reduced; the word gives no strength. For part of these data: Binding seen in cells or lysates may run through a third protein.
Columns and labels:
[1] = molecular target: GST-tagged TRAIL-R1 intracellular domain (UniProt O00220); test: pull-down; TRAIL-R1-IcD pull downs from caspase-8 null Jurkat lysates, no exogenous procaspase-8; only the target purified
[2] = molecular target: GST-tagged TRAIL-R1 intracellular domain (UniProt O00220); test: pull-down; reconstituted DISC: beads coated with purified GST-receptor-IcD (10 ug) incubated with r-FADD (5 ug) and IVT 35S procaspase-8b, 16 hr at 20 C; bead-associated FADD by SDS-PAGE/western blotting; both purified
[3] = molecular target: GST-tagged TRAIL-R2 intracellular domain (UniProt O14763); test: as above

The chains behind the UniProt entries cited, without tags or fusion partners. Where a name states a change or a piece, a line headed by the entry shows the natural chain unless it says otherwise.
UniProt O00220: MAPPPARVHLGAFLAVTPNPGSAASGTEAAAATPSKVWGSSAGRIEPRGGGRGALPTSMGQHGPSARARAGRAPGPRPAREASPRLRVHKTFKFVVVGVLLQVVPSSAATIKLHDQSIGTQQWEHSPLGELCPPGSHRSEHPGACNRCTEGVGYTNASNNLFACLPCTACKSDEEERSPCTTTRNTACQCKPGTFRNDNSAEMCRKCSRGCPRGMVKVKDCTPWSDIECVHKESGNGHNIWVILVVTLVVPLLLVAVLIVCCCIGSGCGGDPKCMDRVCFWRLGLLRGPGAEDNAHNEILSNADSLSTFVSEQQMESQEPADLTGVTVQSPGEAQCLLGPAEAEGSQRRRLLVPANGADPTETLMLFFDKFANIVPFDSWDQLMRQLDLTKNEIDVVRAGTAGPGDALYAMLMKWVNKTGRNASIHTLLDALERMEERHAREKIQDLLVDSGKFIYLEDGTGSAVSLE
UniProt O14763: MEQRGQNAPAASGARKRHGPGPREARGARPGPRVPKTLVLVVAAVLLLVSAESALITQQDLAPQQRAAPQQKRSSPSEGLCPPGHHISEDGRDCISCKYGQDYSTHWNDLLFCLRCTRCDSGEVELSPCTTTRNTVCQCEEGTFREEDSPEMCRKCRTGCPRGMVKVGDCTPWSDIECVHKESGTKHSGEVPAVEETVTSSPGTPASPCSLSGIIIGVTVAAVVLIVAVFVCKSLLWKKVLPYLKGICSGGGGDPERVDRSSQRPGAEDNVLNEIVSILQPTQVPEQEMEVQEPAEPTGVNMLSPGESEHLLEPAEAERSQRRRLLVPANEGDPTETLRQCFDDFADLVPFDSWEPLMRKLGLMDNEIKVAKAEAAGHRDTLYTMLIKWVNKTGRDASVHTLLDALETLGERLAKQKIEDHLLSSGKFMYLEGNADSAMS
UniProt Q13158: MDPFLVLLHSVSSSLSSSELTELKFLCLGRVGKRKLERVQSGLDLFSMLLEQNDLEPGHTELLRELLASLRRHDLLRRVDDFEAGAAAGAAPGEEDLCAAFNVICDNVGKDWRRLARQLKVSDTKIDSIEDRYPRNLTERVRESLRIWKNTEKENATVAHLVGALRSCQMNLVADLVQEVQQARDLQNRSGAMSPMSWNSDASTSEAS

Row | binding [1] | binding [2] | binding [3] | Substance
1 | binds |  |  | endogenous FADD (from UniProt Q13158 1-208)
2 |  | binds | binds | full-length recombinant FADD (from UniProt Q13158 1-208)
